PMC12637173, “Investigation on LASSBio‐1971 and LASSBio‐1974 Cellular Cytotoxic Mechanism and Their Comparative DMPK Profile” (Archiv Der Pharmazie, 2025)

Test: Microsomal metabolic stability
Format: in vitro ADME, rat
Settings: microsomal stability assay; one value per compound
Protocol: The metabolic stability of compounds LASSBio‐1971 (1) and LASSBio‐1974 (2) (10 μM) was incubated in 1 mg/mL of rat microsomes in the presence and absence of the cofactor (i.e., NADPH‐generating system) at the same concentrations as in the previous section. After mixing and incubating at 37°C in a shaking water bath for 1 h, 500 µL cold acetonitrile containing the internal standard was added to terminate the reaction at different time intervals (0, 15, 30, 45, and 60 min).

Structure (SMILES): C=CC(=O)Nc1ccc2ncc(NC(=O)Nc3ccccc3)nc2c1 [LASSBio‐1971 (1)]
- Recovery: 90.59%

Structure (SMILES): CN(C)C/C=C/C(=O)Nc1ccc2ncc(NC(=O)Nc3ccccc3)nc2c1 [LASSBio‐1974 (2)]
- Recovery: 93.17%
